Laboratory results reported in paper PMC8372784.
These are yes or no findings as the source states them, for the method shown. In cells and extracts the contact can be indirect. Some entries that bind do so weakly or less than the wild type.

Protein sequences, listed by entry. Tags and fused reporters are not part of them.
UniProt Q9Y2J4: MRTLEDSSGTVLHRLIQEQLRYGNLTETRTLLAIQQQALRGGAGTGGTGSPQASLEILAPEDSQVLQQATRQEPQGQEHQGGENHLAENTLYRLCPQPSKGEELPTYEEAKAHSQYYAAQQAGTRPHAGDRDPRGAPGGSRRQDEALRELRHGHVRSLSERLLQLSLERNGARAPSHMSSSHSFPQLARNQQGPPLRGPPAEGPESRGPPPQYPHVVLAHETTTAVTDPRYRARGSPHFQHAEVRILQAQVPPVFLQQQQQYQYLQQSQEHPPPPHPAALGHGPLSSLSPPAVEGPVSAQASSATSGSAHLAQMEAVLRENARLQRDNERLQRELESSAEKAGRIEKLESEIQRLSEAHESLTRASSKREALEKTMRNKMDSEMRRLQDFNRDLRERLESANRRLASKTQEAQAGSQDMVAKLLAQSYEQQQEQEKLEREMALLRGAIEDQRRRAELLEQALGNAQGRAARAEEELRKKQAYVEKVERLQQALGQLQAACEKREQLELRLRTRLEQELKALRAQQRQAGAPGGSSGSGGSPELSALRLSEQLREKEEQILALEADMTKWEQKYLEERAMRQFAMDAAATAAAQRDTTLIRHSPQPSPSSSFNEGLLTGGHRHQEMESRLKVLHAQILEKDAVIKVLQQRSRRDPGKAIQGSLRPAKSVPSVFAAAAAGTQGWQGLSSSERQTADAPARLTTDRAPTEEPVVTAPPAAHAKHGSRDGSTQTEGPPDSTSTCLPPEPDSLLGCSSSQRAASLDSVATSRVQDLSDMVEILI

Target: T1, LATS2 wild type, transfected (UniProt Q9NRM7)
T1 sequence: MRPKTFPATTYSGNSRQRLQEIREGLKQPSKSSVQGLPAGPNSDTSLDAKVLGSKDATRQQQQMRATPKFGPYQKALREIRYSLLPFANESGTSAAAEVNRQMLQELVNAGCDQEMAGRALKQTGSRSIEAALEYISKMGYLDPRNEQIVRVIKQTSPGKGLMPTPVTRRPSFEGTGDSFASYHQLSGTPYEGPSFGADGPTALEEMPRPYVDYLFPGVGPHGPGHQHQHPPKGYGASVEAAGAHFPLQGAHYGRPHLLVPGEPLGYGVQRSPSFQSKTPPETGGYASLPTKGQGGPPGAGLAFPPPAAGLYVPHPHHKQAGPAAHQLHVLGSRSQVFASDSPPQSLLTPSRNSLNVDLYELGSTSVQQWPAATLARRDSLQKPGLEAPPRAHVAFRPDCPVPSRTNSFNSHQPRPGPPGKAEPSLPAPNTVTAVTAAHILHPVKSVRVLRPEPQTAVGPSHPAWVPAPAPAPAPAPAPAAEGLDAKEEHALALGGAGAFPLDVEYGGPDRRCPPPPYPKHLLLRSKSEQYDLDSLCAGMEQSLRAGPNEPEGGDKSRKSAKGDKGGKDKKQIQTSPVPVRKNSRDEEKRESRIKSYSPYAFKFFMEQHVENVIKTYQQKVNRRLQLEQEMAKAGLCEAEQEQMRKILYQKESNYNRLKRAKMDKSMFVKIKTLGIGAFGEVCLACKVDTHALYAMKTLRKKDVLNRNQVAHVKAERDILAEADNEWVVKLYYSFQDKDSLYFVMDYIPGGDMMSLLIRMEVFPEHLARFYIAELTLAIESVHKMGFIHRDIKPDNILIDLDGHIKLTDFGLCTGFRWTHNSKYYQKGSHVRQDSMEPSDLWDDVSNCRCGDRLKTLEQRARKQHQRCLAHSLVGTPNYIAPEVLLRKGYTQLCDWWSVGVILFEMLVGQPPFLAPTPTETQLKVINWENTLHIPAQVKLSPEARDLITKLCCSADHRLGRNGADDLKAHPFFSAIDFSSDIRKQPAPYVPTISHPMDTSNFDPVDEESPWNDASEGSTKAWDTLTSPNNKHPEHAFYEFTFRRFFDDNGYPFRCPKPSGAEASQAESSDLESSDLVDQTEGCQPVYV
Experiment: pull-down; 293T cells stably transduced with shGFP or shWWP1, rescue with WT or C890A WWP1, transfected with the indicated DNAs; lysates pulled down with streptavidin agarose beads (SFB tag) (Fig 5A)

- binding: binds
Substance: AMOTL2 wild type, transfected (from UniProt Q9Y2J4 1-779)
